From patent US20060183687A1
No constants are given. Whether binding was seen depends on the method and setting. Some entries that bind do so weakly or less than the wild type.

Sequences of proteins named here, by UniProt entry; tags and fusion partners are left off. A change or cut given only in a name is not applied to a line headed by its entry. A line that says so, or that is headed by a name, gives the form on record, which may keep a tag or linker.
UniProt Q07817: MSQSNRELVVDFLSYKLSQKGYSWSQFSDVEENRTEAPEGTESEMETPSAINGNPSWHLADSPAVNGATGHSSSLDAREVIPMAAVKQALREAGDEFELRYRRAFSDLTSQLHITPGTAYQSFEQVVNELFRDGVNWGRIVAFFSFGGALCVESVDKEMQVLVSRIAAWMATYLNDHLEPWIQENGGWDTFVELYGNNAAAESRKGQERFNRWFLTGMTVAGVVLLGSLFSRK
FLAG-tagged Bcl-xL (Q07817, form named): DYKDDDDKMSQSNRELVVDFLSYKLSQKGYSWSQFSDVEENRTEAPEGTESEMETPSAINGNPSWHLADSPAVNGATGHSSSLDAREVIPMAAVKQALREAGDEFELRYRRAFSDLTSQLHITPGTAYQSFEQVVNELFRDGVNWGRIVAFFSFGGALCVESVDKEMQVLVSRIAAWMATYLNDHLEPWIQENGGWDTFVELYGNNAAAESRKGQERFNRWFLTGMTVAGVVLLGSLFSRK
UniProt P63167: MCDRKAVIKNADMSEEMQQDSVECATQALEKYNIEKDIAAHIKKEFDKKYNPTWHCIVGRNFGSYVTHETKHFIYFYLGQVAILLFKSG
UniProt O54918: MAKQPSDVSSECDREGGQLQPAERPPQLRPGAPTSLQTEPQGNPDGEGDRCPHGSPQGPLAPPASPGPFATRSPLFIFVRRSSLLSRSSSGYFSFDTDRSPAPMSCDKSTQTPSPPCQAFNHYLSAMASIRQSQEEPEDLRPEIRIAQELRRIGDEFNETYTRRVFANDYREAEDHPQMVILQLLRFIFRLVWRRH

How the values were obtained:
Bcl-xL (wild-type) = Bcl-xL (wild-type) (UniProt Q07817); assay: immunoprecipitation with anti-EE from 35S-labelled co-transfected 293T cells (FIG. 7A)
FLAG-tagged Bcl-xL = FLAG-tagged Bcl-xL (UniProt Q07817); assay: immunoprecipitation and immunoblot from co-transfected 293T cells (FIG. 7)
dynein light chain = dynein light chain (UniProt P63167); assay: reverse yeast two-hybrid system

Row | Substance | binding (Bcl-xL (wild-type)) | binding (FLAG-tagged Bcl-xL) | binding (dynein light chain)
1 | EE-tagged BimL (Glu-Glu epitope-tagged mouse BimL) (from UniProt O54918 1-196) | binds | binds | –
2 | murine BimL (wild-type) (from UniProt O54918 1-196) | – | – | binds
